# Reference: the supplement of paper PMC8728848
# This is one part of the list.
# B1: R2-fiber (Pseudomonas aeruginosa), Q9S576 (protein)
# chain: HHHHHHKVAKDLVVSLAYQVRTEDGVLVDESPVSAPLDYLHGHGSLISGLETALEGHEVGDKFDVAVGANDAYGQYDENLVQRVPKDVFMGVDELQVGMRFLAETDQGPVPVEITAVEDDHVVVDGNHMLAGQNLKFNVEVVAIREATEEELAHGHVHGAHDHHHDHDHDGCCGGHGHDHGHEHGGEGCCGGKGNGGCGCHENLYFQGVTAGMALAATDIPGLDASKLVSGVLAEQRLPVFARGLATAVSNSSDPNTATVPLMLTNHANGPVAGRYFYIQSMFYPDQNGNASQIATSYNATSEMYVRVSYAANPSIREWLPWQRCDIGGSFTKEADGELPGGVNLDSMVTSGWWSQSFTAQAASGANYPIVRAGLLHVYAASSNFIYQTYQAYDGESFYFRCRHSNTWFPWRRMWHGGDFNPSDYLLKSGFYWNALPGKPATFPPSAHNHDVGQLTSGILPLARGGVGSNTAAGARSTIGAGVPATASLGASGWWRDNDTGLIRQWGQVTCPADADASITFPIPFPTLCLGGYANQTSAFHPGTDASTGFRGATTTTAVIRNGYFAQAVLSWEAFGR
# Legend:
# Assay in all cases: glycan array binding signal (z-score within array); higher = stronger binding
# Settings in all cases: glycan notation: IUPAC condensed, linker removed
# [1] = biological target: Gal(b1-3)GlcNAc(b1-2)Man(a1-3)[Gal(b1-3)GlcNAc(b1-2)Man(a1-6)]Man(b1-4)GlcNAc(b1-4)GlcNAc
# Outline: (§1)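 From the Consortium for Functional Glycomics database, 3228 arrays were curated, keeping only those whose protein sequence was available. Binding is given as a within-array Z-score averaged across arrays sharing a protein sequence and across linkers. Negative Z-scores can be read as non-binding.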
# [2] = biological target: Gal(b1-3)GlcNAc(b1-2)Man(a1-3)[Gal(b1-3)GlcNAc(b1-2)Man(a1-6)]Man(b1-4)GlcNAc(b1-4)[Fuc(a1-6)]GlcNAc
# Outline: as §1
# [3] = biological target: Gal(b1-3)GlcNAc(b1-2)Man(a1-3)[GlcNAc(b1-4)][Gal(b1-3)GlcNAc(b1-2)Man(a1-6)]Man(b1-4)GlcNAc(b1-4)GlcNAc
# Outline: as §1
# [4] = biological target: Gal(b1-3)GlcNAc(b1-2)[Gal(b1-3)GlcNAc(b1-6)]Man(a1-6)[Gal(b1-3)GlcNAc(b1-2)Man(a1-3)]Man(b1-4)GlcNAc(b1-4)GlcNAc
# Outline: as §1
# [5] = biological target: Gal(b1-3)GlcNAc(b1-3)Gal(b1-3)GlcNAc
# Outline: as §1
# [6] = biological target: Gal(b1-3)GlcNAc(b1-3)Gal(b1-4)Glc
# Outline: as §1
# [7] = biological target: Gal(b1-3)GlcNAc(b1-3)Gal(b1-4)GlcNAc
# Outline: as §1
# [8] = biological target: Gal(b1-3)GlcNAc(b1-3)Gal(b1-4)GlcNAc(b1-2)Man(a1-3)[Gal(b1-3)GlcNAc(b1-3)Gal(b1-4)GlcNAc(b1-2)Man(a1-6)]Man(b1-4)GlcNAc(b1-4)GlcNAc
# Outline: as §1
# [9] = biological target: Gal(b1-3)GlcNAc(b1-3)Gal(b1-4)GlcNAc(b1-2)[Gal(b1-3)GlcNAc(b1-3)Gal(b1-4)GlcNAc(b1-6)]Man(a1-6)[Gal(b1-3)GlcNAc(b1-3)Gal(b1-4)GlcNAc(b1-2)Man(a1-3)]Man(b1-4)GlcNAc(b1-4)[Fuc(a1-6)]GlcNAc
# Outline: as §1
# [10] = biological target: Gal(b1-3)GlcNAc(b1-3)Gal(b1-4)GlcNAc(b1-3)Gal(b1-4)GlcNAc(b1-2)[Gal(b1-3)GlcNAc(b1-3)Gal(b1-4)GlcNAc(b1-3)Gal(b1-4)GlcNAc(b1-6)]Man(a1-6)[Gal(b1-3)GlcNAc(b1-3)Gal(b1-4)GlcNAc(b1-3)Gal(b1-4)GlcNAc(b1-2)Man(a1-3)]Man(b1-4)GlcNAc(b1-4)[Fuc(a1-6)]GlcNAc
# Outline: as §1
# [11] = biological target: Gal(b1-3)GlcNAc(b1-3)Gal(b1-4)GlcNAc(b1-6)[Gal(b1-3)GlcNAc(b1-3)]Gal(b1-4)Glc
# Outline: as §1
# [12] = biological target: Gal(b1-3)GlcNAc(b1-3)Gal(b1-4)[Fuc(a1-3)]GlcNAc
# Outline: as §1
# [13] = biological target: Gal(b1-3)GlcNAc(b1-3)Gal(b1-4)[Fuc(a1-3)]GlcNAc(b1-6)[Gal(b1-3)GlcNAc(b1-3)]Gal(b1-4)Glc
# Outline: as §1
# [14] = biological target: Gal(b1-3)GlcNAc(b1-3)GalNAc
# Outline: as §1
# [15] = biological target: Gal(b1-3)GlcNAc(b1-6)Gal(b1-4)GlcNAc
# Outline: as §1
# [16] = biological target: Gal(b1-3)GlcNAc(b1-6)GalNAc
# Outline: as §1
# [17] = biological target: Gal(b1-3)GlcNAc(b1-6)[Gal(b1-3)]GalNAc
# Outline: as §1
# [18] = biological target: Gal(b1-3)GlcNAc6S
# Outline: as §1
# [19] = biological target: Gal(b1-3)[Fuc(a1-4)]GlcNAc
# Outline: as §1
# [20] = biological target: Gal(b1-3)[Fuc(a1-4)]GlcNAc(b1-2)Man
# Outline: as §1
# [21] = biological target: Gal(b1-3)[Fuc(a1-4)]GlcNAc(b1-2)Man(a1-3)[Gal(b1-3)[Fuc(a1-4)]GlcNAc(b1-2)Man(a1-6)]Man(b1-4)GlcNAc(b1-4)[Fuc(a1-6)]GlcNAc
# Outline: as §1
# [22] = biological target: Gal(b1-3)[Fuc(a1-4)]GlcNAc(b1-3)Gal(b1-3)[Fuc(a1-4)]GlcNAc
# Outline: as §1
# [23] = biological target: Gal(b1-3)[Fuc(a1-4)]GlcNAc(b1-3)Gal(b1-4)[Fuc(a1-3)]GlcNAc
# Outline: as §1
# [24] = biological target: Gal(b1-3)[Fuc(a1-4)]GlcNAc(b1-6)GalNAc
# Outline: as §1
# [25] = biological target: Gal(b1-3)[GlcNAc(b1-6)]GalNAc
# Outline: as §1
# [26] = biological target: Gal(b1-3)[Neu5Ac(a2-6)]GalNAc
# Outline: as §1
# [27] = biological target: Gal(b1-3)[Neu5Ac(a2-6)]GlcNAc(b1-4)Gal(b1-4)Glc
# Outline: as §1
# [28] = biological target: Gal(b1-3)[Neu5Ac(b2-6)]GalNAc
# Outline: as §1
# [29] = biological target: Gal(b1-4)Gal
# Outline: as §1
# [30] = biological target: Gal(b1-4)GalNAc(a1-3)[Fuc(a1-2)]Gal(b1-4)GlcNAc
# Outline: as §1
binder,measurement,setting,value
B1,glycan array binding signal (z-score),[1],0.909
same,glycan array binding signal (z-score),[2],0.783
same,glycan array binding signal (z-score),[3],-0.395
same,glycan array binding signal (z-score),[4],-0.011
same,glycan array binding signal (z-score),[5],1.43
same,glycan array binding signal (z-score),[6],-0.113
same,glycan array binding signal (z-score),[7],-0.227
same,glycan array binding signal (z-score),[8],1.64
same,glycan array binding signal (z-score),[9],1.01
same,glycan array binding signal (z-score),[10],1.22
same,glycan array binding signal (z-score),[11],0.141
same,glycan array binding signal (z-score),[12],0.162
same,glycan array binding signal (z-score),[13],0.849
same,glycan array binding signal (z-score),[14],-0.267
same,glycan array binding signal (z-score),[15],0.467
same,glycan array binding signal (z-score),[16],-0.026
same,glycan array binding signal (z-score),[17],-0.27
same,glycan array binding signal (z-score),[18],-0.334
same,glycan array binding signal (z-score),[19],-0.653
same,glycan array binding signal (z-score),[20],-0.063
same,glycan array binding signal (z-score),[21],-0.103
same,glycan array binding signal (z-score),[22],-0.446
same,glycan array binding signal (z-score),[23],2.1
same,glycan array binding signal (z-score),[24],0.756
same,glycan array binding signal (z-score),[25],0.257
same,glycan array binding signal (z-score),[26],-0.694
same,glycan array binding signal (z-score),[27],0.133
same,glycan array binding signal (z-score),[28],-0.396
same,glycan array binding signal (z-score),[29],-0.348
same,glycan array binding signal (z-score),[30],0.096
